# Results taken from paper PMC10482915, “Hornerin mediates phosphorylation of the polo-box domain in Plk1 by Chk1 to induce death in mitosis” (Cell Death and Differentiation, 2023).
# By UniProt entry, the sequences of proteins in these tests, tags left out.
# UniProt Q86YZ3: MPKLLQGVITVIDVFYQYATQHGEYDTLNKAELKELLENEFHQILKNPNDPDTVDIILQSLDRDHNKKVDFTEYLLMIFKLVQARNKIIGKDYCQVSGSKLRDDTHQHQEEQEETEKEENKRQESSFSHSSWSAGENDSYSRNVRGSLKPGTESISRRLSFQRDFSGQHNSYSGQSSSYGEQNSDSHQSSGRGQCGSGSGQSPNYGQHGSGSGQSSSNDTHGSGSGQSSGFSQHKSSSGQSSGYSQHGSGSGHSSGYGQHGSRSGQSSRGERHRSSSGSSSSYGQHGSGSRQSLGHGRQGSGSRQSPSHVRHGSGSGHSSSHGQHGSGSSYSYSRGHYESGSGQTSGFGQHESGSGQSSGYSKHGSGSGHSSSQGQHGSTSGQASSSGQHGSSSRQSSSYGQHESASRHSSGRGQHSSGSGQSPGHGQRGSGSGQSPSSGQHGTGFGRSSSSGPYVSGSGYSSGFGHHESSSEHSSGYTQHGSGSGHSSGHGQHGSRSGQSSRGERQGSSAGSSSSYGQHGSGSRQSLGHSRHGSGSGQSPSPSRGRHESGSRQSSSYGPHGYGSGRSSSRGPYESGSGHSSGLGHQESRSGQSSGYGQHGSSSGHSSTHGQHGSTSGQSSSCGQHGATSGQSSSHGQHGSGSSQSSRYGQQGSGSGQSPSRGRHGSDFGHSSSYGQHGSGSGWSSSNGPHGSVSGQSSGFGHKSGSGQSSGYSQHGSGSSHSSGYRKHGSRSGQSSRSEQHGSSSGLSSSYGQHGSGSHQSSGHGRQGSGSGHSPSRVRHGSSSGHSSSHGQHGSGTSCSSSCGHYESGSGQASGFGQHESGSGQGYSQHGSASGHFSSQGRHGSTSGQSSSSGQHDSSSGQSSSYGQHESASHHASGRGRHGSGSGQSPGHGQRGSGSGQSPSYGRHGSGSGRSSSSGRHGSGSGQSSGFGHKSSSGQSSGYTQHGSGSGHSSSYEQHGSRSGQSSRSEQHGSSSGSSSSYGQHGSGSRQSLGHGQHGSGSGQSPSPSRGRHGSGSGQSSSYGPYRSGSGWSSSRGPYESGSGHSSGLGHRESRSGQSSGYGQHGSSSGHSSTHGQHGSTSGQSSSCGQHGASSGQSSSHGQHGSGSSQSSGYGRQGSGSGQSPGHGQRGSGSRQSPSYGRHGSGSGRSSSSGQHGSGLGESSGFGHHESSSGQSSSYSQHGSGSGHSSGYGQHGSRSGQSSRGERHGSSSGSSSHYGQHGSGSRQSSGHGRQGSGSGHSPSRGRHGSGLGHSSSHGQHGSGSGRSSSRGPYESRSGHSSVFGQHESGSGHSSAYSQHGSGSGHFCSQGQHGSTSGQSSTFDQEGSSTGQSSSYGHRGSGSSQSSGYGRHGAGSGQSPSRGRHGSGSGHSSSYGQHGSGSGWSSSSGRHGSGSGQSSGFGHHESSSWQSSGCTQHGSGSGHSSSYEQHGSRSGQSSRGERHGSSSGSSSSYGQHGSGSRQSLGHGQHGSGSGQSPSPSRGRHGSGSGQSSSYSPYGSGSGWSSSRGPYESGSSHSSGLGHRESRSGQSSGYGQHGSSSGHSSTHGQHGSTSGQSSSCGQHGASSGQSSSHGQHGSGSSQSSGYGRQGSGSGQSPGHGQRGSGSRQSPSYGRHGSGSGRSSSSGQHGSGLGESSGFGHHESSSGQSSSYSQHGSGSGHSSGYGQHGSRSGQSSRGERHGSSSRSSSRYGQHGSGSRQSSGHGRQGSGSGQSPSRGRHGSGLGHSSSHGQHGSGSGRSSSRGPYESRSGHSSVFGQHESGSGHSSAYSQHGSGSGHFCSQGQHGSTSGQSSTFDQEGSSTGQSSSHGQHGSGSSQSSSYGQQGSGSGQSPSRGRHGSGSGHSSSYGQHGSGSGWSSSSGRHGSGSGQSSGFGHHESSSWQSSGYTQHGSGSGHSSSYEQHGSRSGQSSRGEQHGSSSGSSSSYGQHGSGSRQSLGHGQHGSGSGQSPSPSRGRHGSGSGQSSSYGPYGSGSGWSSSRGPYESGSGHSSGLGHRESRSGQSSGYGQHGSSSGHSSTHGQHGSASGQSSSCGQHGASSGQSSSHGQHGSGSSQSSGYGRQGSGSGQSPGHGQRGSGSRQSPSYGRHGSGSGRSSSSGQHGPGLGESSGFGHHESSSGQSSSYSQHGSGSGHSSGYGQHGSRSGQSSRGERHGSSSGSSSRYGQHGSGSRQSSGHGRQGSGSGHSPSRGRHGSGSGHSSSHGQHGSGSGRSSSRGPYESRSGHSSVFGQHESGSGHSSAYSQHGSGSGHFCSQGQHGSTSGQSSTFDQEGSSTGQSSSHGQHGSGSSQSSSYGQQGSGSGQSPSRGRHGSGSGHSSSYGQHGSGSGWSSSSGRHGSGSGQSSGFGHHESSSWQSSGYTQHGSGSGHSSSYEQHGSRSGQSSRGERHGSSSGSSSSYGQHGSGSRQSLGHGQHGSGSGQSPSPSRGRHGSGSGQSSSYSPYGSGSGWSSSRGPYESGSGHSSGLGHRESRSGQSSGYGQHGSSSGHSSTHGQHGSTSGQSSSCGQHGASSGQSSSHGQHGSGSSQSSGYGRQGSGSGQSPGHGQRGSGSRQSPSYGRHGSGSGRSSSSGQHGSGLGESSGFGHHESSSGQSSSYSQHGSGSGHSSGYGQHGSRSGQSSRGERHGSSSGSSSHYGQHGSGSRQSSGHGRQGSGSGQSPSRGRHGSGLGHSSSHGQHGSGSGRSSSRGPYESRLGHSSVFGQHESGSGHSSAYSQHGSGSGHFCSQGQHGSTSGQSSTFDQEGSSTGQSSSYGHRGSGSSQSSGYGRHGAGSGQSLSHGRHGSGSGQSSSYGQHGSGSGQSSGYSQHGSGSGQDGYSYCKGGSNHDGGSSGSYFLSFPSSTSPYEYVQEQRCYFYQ
# Biological target: GFP-S-Plk1 (UniProt P53350)
# Experiment: affinity purification with mass spectrometry; tandem purification of GFP-S-Plk1 from HeLa S3 lysate: anti-GFP beads, TEV release, S-protein agarose, urea elution; mass spectrometry
substance,measurement,value
"hornerin, endogenous (from UniProt Q86YZ3 1-2850)",binding,binds

# No constants are given. Whether binding was seen depends on the method and setting. In cells and extracts the contact can be indirect. Here binding means that the protein was enriched with, or labelled near, the bait; the list need not be complete.
